Reference: PubChem BioAssay AID2685 (National Center for Advancing Translational Sciences (NCATS), 2010)
The other results are listed elsewhere or left out. The main result of the screen is listed elsewhere. These columns were measured beside it and carry no call. Compounds called inactive in the main read-out are mostly missing here. Potencies come from curve fits of mixed quality, noted in brackets.

Assay: qHTS Assay for Lipid Storage Modulators in Drosophila S3 Cells;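 on cell number change: cells counted by Cell Tracker Red CMTPX staining in the red channel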
Conditions: BODIPY lipid droplet fluorescence, 18-24 h; for cell number change: measured here: cell count max response, cells fed with added oleic acid
Text: NIH Molecular Libraries Probe Production Centers Network [MLPCN] NIH Chemical Genomics Center [NCGC] MLPCN Grant: 1 R03 MH085686-01 Assay Submitter (PI): Beller, Mathias; Max-Planck-Institut fur Biophysikalische Chemie NCGC Assay Overview: Storing lipids as a reservoir for energy or the anabolism of elementary metabolites is a common feature of probably all cells and is conserved from bacteria to humans. The universal cellular lipid storage organelle is the so-called lipid storage droplet (LD). Although ubiquitous, LDs share a simple structure composed of a hydrophobic core that harbors the storage lipids, which is shielded by a droplet-specific phospholipid monolayer to which proteins are attached. The current model of LD biogenesis involves an incorporation of the lipid core into the membrane leaflets of the endoplasmic reticulum (ER) followed by a subsequent budding-like maturation of a LD, which ultimately pinches off. Once released, LD volume can increase by localized lipogenesis or fusion of existing droplet. Storage lipids are re-mobilized enzymatically by lipase activity. Lipase regulation in the adipocyte is heavily studied and involves multiple components including catecholamine signaling, the LD-associated proteins Perilipin and comparative gene identification (CGI-58) and at least two lipases named hormone sensitive lipase (HSL) and adipocyte triglyceride lipase (ATGL). LD regulation outside of the adipocyte is poorly understood and only few components are known. However, there is an urgent need to learn more about ectopic fat depots as mislocalized storage of lipids, for example in the liver or muscle, is an eminent health problem associated with insulin resistance or the metabolic syndrome. We developed a laser-scanning cytometer assay to enable 1,536-well screening and combined the results of the small molecules screen with an RNAi database based on lipid storage.
Triacsin C (Sigma-Aldrich T-4540), an inhibitor of long-chain fatty acyl CoA synthetase that blocks synthesis of triglycerides, was used as a positive control for lipid under-storage. A total of 23 nL of compound solution of different concentrations were transferred to the assay plates using a Kalypsys pin tool equipped with a 1,536-pin array containing 10-nL slotted pins (FP1S10, 0.457-mm diameter, 50.8 mm long; V&P Scientific). One microliter of oleic acid (400 uM) was added, and the plate was lidded with stainless steel rubber gasket lined lids containing pinholes. […] Fluorescence was detected by excitation of the fluorophores with a 488-nm laser on an Acumen Explorer (TTP Lab Tech). The total intensity in channel 2 (500-530 nm) reflected lipid droplet accumulation. Cells were detected using channel 3 (575-640 nm) with 5-um width and 100-um depth filters. The ratio of the number of objects in PMT channel 2 over the number of objects in PMT channel 3 was also calculated. Percent activity was computed relative to an internal control (100% inhibited lipid droplet deposition due to the presence of 20 uM Triacsin C), which was added to 32 wells/plate.

[1] = measured here: lipid fluorescence (Fed channel) AC50, cells fed with added oleic acid
[2] = measured here: cell number channel AC50, cells fed with added oleic acid

SMILES	AC50 [1]	cell number change [%]	AC50 [2]
CN(CCCC(=O)Nc1ccc(Br)cc1F)S(=O)(=O)c1ccccc1	4.11 µM [falling, full curve]	–	–
Fc1c(F)c(C(F)(F)F)c(F)c(F)c1N1CCN(c2ccc3nnc(C(F)(F)F)n3n2)CC1	2.06 µM [rising, partial curve, poor fit]	4.33	–
CC(C)=CC(=O)OCC(=O)Nc1ccc(Cl)cn1	16.4 µM [falling, partial curve]	-6.71	1.64 µM [falling, partial curve]
O=C(NC1CCN(C(=O)Nc2ccccc2)CC1)C1CCCCC1	29.1 µM [falling, single point]	-12.1	–
CN(CCNS(=O)(=O)c1ccc2c(c1)oc(=O)n2C)Cc1ccccc1	–	1.57	0.651 µM [falling, single point]
Cc1ccc(CNC(=O)c2cc(-c3ccccc3)n(Cc3cc(C)no3)n2)cc1	1.64 µM [falling, partial curve]	–	–
C=CCOc1ccc(C2=NO[C@@H]3[C@@H]4C[C@@H]([C@H]5C(=O)N(C)C(=O)[C@@H]45)[C@H]23)cc1	29.1 µM [rising, single point]	45.9	20.6 µM [rising, single point]
O=C(CN1CCN(c2ccccn2)CC1)Nc1cc(F)ccc1F	7.31 µM [falling, single point]	–	–
CSc1nnc(-c2cc(Br)ccc2N=Cc2c(C)[nH]n(-c3ccccc3)c2=O)c(=O)[nH]1	3.66 µM [falling, single point]	-13.5	–
Cc1ccc(OCCC(=O)Nc2ccc(S(=O)(=O)Nc3nccs3)cc2)cc1	9.2 µM [rising, partial curve]	8.81	–
CC(C)c1cc(C(N)=O)c(NC(=O)C2CCC2)s1	–	–	1.84 µM [rising, partial curve]
O=C1C(Cl)=C(Nc2ccccc2O)C(=O)N1CCc1ccccc1	29.1 µM [falling, single point]	-52.5	29.1 µM [falling, single point]
Cc1ccc(-c2nc(NC(=O)CSc3nnc4scc(-c5ccccc5)n34)ns2)cc1	0.103 µM [rising, full curve, poor fit]	-1.43	–
CCN(CC)C(=O)CSc1nc(O)cc(=O)n1-c1ccccc1OC	–	4.35	–
Cn1c(/C=N/NC(=O)c2ccccc2)nc2ccccc21	29.1 µM [falling, single point]	10.1	–
O=C(c1ccc(Cl)c(Cl)c1)N1CCC(O)(CN2CCOCC2)CC1	1.3 µM [falling, single point]	-1.77	0.116 µM [falling, full curve]
CC(=O)Nc1sc2c(c1C#N)CC(C)(C)NC2(C)C	29.1 µM [falling, single point]	0.286	–
CCC1(CC)NC(=O)N(CC(=O)NCc2ccc3c(c2)OCO3)C1=O	–	–	0.103 µM [rising, full curve, poor fit]
O=C(CSc1cn(CCNC(=O)c2cccs2)c2ccccc12)NCC1CCCO1 (centres undefined)	6.51 µM [rising, single point]	–	3.26 µM [rising, single point]
O=C(CC1Sc2ccccc2NC1=O)NCc1ccc(Cl)cc1 (centres undefined)	–	6.51	–

SMILES	AC50 [1]	cell number change [%]	AC50 [2]
NS(=O)(=O)c1ccc(N/C=C\C(=O)c2ccc3ccccc3c2)cc1	25.9 µM [rising, partial curve]	189	16.4 µM [rising, partial curve]
O=C(Nc1ccccc1)c1cc2c(=O)c3ccccc3oc2nc1C(F)(F)F	29.1 µM [rising, single point]	-5.35	–
CCOC(=O)C1=c2/c(=C/c3ccncc3)c(N)c(C(=O)OC)n2C(=O)C(c2ccncc2)S1 (centres undefined)	–	-54.7	–
O=C(CN1C(=O)NC2(CCCCC2)C1=O)N1CCN(S(=O)(=O)c2ccc(F)c(F)c2F)CC1	–	–	1.84 µM [rising, single point]
CCOC(=O)CC(=O)CSc1nc2ccc(C)cc2cc1C#N	14.6 µM [rising, partial curve]	23	–
CCOC(=O)c1cnc2ccc(OCC)cc2c1NCc1ccccc1OC	0.291 µM [rising, partial curve, poor fit]	16	–
CCN(c1ccccc1)S(=O)(=O)c1ccc(NC(=O)c2nc(S(C)(=O)=O)ncc2Cl)cc1	–	61.1	–
Cc1cc(C)n2c(Br)c(CN3CCCC(C)C3)nc2n1 (centres undefined)	0.58 µM [rising, single point]	–	0.58 µM [rising, single point]
CC(NC(=O)c1cc2ccccc2o1)c1cccs1 (centres undefined)	6.51 µM [rising, single point]	6.13	–
COc1ccc(C(=O)CCC(=O)Nc2ccc(Cl)cc2)cc1	9.2 µM [rising, single point]	35.4	–
CSc1nnc(NC(=O)c2nc(S(=O)(=O)Cc3cccc(C)c3)ncc2Cl)s1	3.66 µM [falling, partial curve]	-27.7	0.461 µM [falling, full curve, poor fit]
CCOC(=O)c1cnc(-n2nc(C)cc2C)nc1N(CC)CC	29.1 µM [rising, single point]	-2.66	–
O=C(O)CCCC(=O)N1N=C(c2ccco2)CC1c1ccco1 (centres undefined)	25.9 µM [rising, single point]	-2.36	–
O=S(=O)(c1cccs1)N1CN(CC2CCCO2)c2nc3ccccc3nc21 (centres undefined)	1.3 µM [rising, partial curve]	12.5	0.92 µM [rising, full curve, poor fit]
COc1cc(NC(=O)c2ccno2)cc(C(=O)Nc2cccc(C(F)(F)F)c2)c1	2.59 µM [rising, single point]	5.17	–
CC(CN1CCCCC1)OC(=O)c1cccc(F)c1 (centres undefined)	0.082 µM [rising, full curve, poor fit]	24.3	–
CCOC(=O)c1cccc(NC(=O)CCNS(=O)(=O)c2cc(Br)cnc2N)c1	–	-0.989	–
Cc1ccc(S(=O)(=O)N(C)c2ccc(OCC(=O)Nc3nc4c(ccc5ccccc54)s3)cc2)cc1	–	-30.3	13 µM [falling, partial curve, poor fit]
Cc1ccccc1-c1nc(-c2ccccn2)no1	–	–	6.51 µM [rising, single point]
O=C(Nc1ccc2ccccc2c1)N1CCCN(CCOc2ccccc2)CC1	0.103 µM [rising, full curve, poor fit]	-11.8	–

SMILES	AC50 [1]	cell number change [%]	AC50 [2]
CCN1CCN(CC(=O)Nc2nc3ccc(C)cc3s2)CC1	0.00651 µM [falling, full curve, poor fit]	-13	–
CC(C)c1ccc(N(CC(=O)NCc2ccco2)C(=O)CCC(=O)Nc2nccs2)cc1	16.4 µM [rising, partial curve]	3.97	–
O=C(Nc1ccccc1C(F)(F)F)N1CCCCCC1	–	-2.77	–
O=S(=O)(NCCNc1nccc(C(F)(F)F)n1)c1ccccc1	29.1 µM [rising, single point]	21.9	–
COc1cccc(NC(=O)Cn2nnc(-c3ccccc3N)n2)c1	–	31.1	0.231 µM [rising, full curve]
CN(C(=O)COC(=O)c1cc(=O)[nH]c2ccccc12)C1CCCCC1	29.1 µM [falling, single point]	-59.5	16.4 µM [falling, single point]
CC(=O)Oc1cc(C(C)C)c(OCCN(C)C)cc1C	18.4 µM [rising, single point]	42.7	23.1 µM [rising, partial curve]
O=C(c1noc2c1CCCC2)N1CCc2ccccc2C1	–	34.2	32.6 µM [rising, partial curve, poor fit]
COc1ccc(C(=O)CCc2ccccc2)cc1	13 µM [rising, partial curve, poor fit]	11.2	–
CC(C)COC(=O)C1[C@H]2C(=O)N(Cc3cccs3)C[C@]23C=C[C@H]1O3 (some centres undefined)	25.9 µM [falling, partial curve]	-20.5	–
O=c1cc(CSc2nnc(COc3ccc(Cl)cc3)o2)c2ccccc2[nH]1	14.6 µM [rising, partial curve]	24.3	2.91 µM [rising, single point]
COc1ccc(/C=N/n2cnc3c([nH]c4ccccc43)c2=O)cc1CO	6.51 µM [rising, partial curve]	57.7	0.517 µM [rising, full curve, poor fit]
Cc1c(/C=N/Nc2nc3ccccc3[nH]2)c2ccccc2n1C	–	-63.5	5.8 µM [falling, full curve]
CP(=O)(COC(=O)c1ccccc1)COC(=O)c1ccccc1	29.1 µM [falling, single point]	17.6	–
O=C(CSc1nc2scc(-c3ccco3)c2c(=O)n1-c1ccccc1)NCC1CCCO1 (centres undefined)	29.1 µM [falling, partial curve, poor fit]	-27.8	–
Cn1sc(NC(=O)c2ccccc2Cl)nc1=O	–	184	18.4 µM [rising, single point]
C/C(=N\NC=O)c1ccncc1	1.46 µM [falling, partial curve]	19.4	–
O=S(=O)(NCc1ccco1)c1ccc(Cl)cc1Cl	–	-6.72	–
CS(=O)(=O)N1CCC(C(=O)Nc2ccc3c(c2)OCO3)CC1	0.82 µM [falling, single point]	–	–

Random excerpt: 2 entries already listed.
SMILES	AC50 [1]	cell number change [%]	AC50 [2]
CP(=O)(COC(=O)c1ccccc1)COC(=O)c1ccccc1	29.1 µM [falling, single point]	17.6	–
CC(=O)Oc1cc(C(C)C)c(OCCN(C)C)cc1C	18.4 µM [rising, single point]	42.7	23.1 µM [rising, partial curve]
